Experimental data from publication PMC10140043.
pKd: −log10 of the molar value. Construct, isoform or probe ends are uncertain for at least one entry. Tags and fusion partners may be left off the protein sequences shown.

What was measured:
[1] = biological target: T1, monomeric C-reactive protein (mCRP) (human) (UniProt P02741); assay: binding assay; settings: No direct binding assay in this paper (only cell-free TX-TL mRFP1 riboswitch reporter assays, left out); Kd values are cited and their conditions are not given
T1 sequence (looked up, limits assumed): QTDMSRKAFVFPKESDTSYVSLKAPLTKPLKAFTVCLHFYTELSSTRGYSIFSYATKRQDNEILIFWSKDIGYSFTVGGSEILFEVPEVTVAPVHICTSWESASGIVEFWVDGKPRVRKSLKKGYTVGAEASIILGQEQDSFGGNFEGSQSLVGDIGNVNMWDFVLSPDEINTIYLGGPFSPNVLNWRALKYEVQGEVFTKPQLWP

[2] = biological target: T2, interleukin-32 gamma (IL-32γ) (human) (UniProt P24001); assay: binding assay; settings: No direct binding assay in this paper (only cell-free TX-TL mRFP1 riboswitch reporter assays, left out); Kd values are cited and their conditions are not given
T2 sequence (looked up, limits assumed): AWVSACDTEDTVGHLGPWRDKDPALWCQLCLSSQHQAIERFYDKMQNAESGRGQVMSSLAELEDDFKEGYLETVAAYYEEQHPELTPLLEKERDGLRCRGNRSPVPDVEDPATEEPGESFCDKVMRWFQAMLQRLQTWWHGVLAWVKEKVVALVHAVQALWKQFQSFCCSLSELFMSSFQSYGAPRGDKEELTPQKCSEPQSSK

GCCUGUAAGGUGGUCGGUGUGGCGAGUGUGUUAGGAGAGAUUGC [VT2d0 (full), mCRP aptamer, 44 nt]
pKd [1]: 6.73

GGGUUCACUGCAGACUUGACGAAGCUUCCGGAGAGAAGGGUCAAAGUUGUGCGGGAGUGUGUUGUGGAAUGGAUCCACAUCUACGAAUUC [AC3-3 (full), IL-32γ aptamer, 90 nt]
pKd [2]: 7.11
